Results on four molecules are retold here after doi:10.1101/797811.

By UniProt entry, the sequences of proteins in these tests, tags left out.
UniProt P02929: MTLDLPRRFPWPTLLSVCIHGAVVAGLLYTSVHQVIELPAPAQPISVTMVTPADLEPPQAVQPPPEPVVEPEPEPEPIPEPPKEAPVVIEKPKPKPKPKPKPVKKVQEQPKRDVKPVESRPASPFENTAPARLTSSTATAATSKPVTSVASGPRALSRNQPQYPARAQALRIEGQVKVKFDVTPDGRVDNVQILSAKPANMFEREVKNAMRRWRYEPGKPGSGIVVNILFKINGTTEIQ

Sequences and labels used below:
B1: ExbD (54-58Ala) (protein, UniProt P0ABV2 1-141)
chain: MAMHLNENLDDNGEMHDINVTPFIDVMLVLLIIFMVAAPLATVDVKVNLPASTAAAAARPEKPVYLSVKADNSMFIGNDPVTDETMITALNALTEGKKDTTIFFRADKTVDYETLMKVMDTLHQAGYLKIGLVGEETAKAK
B2: ExbD (49-53Ala) (protein, UniProt P0ABV2 1-141)
chain: MAMHLNENLDDNGEMHDINVTPFIDVMLVLLIIFMVAAPLATVDVKVNAAAAASTPQPRPEKPVYLSVKADNSMFIGNDPVTDETMITALNALTEGKKDTTIFFRADKTVDYETLMKVMDTLHQAGYLKIGLVGEETAKAK
B3: ExbD (44-48Ala) (protein, UniProt P0ABV2 1-141)
chain: MAMHLNENLDDNGEMHDINVTPFIDVMLVLLIIFMVAAPLATVAAAAALPASTSTPQPRPEKPVYLSVKADNSMFIGNDPVTDETMITALNALTEGKKDTTIFFRADKTVDYETLMKVMDTLHQAGYLKIGLVGEETAKAK
B4: ExbD (59-63Ala) (protein, UniProt P0ABV2 1-141)
chain: MAMHLNENLDDNGEMHDINVTPFIDVMLVLLIIFMVAAPLATVDVKVNLPASTSTPQPAAAAAVYLSVKADNSMFIGNDPVTDETMITALNALTEGKKDTTIFFRADKTVDYETLMKVMDTLHQAGYLKIGLVGEETAKAK

Results are given in words; binding and its absence hold for the method and conditions named. In cells and extracts the contact can be indirect. Some binding calls cover weakened binding; strength is not graded here.

The test addresses TonB (Escherichia coli K-12 (endogenous in RA1045, a W3110 derivative)) (UniProt P02929). In words: cross-linking.
For B1, the binding entry is “binds”. With B2 the entry was “no binding”; with B3, “no binding”; with B4, “binds”.
